Assay results taken from article PMC12304293, “Combatting virulent gut bacteria by inhibiting the biosynthesis of a two-component lanthipeptide toxin” (Nature Communications, 2025).
Where “and” joins values, the source holds several entries; their conditions need not be identical. Equal entries are not always repeated. Where two headings read alike, the source gives them in different places. This continues a long series; more values of the same kind are listed elsewhere. Non-standard residues stand in square brackets, D forms with d. Residues, ends and D or L forms follow the SMILES beside them. *: point of attachment. boroGlu = O=C(O)CC[C@H](N*)B(O)O; Gly(cPr) = N[C@H](C(=O)O)C1CC1

Test system: E. faecalis FA2-2 (pAM714), E. faecalis ATCC 29212
Type: cell-based, Enterococcus faecalis
Conditions: trials 1-3; for growth curve reading, ATCC 29212 +9: E. faecalis ATCC 29212 with 9; for growth curve reading, pAM714 +9: E. faecalis pAM714 with 9
Experimental: To a 96-well plate, BHI media was added containing 200 µM of inhibitor 9. An overnight culture of E. faecalis was diluted to a concentration of 10^6 CFU/mL and an equal volume of this culture was added to the well containing inhibitor. A growth control was prepared by combining the diluted bacterial cells with an equal volume of sterile BHI. A sterility control well was filled with sterile BHI to the same volume. The 96-well plate was transferred to a plate reader preheated to 37 °C and the plate was shaken continuously. The OD600 of each well was measured over the course of 24 h. Uncorrected OD600 values were plotted as a function of time. […]
or B) E. faecalis ATCC 29212. Wells containing B HI media were inocul ated with 1 x 106 C F U / m L of E. faecalis .I nhibitor 9 was added to achieve a well concentration of 100 µM. A growth control well not containing 9 an d a sterile control not co ntaining bacteria were s et up on the same plate.
The plate was incubated with shaking at 37 ̊C and the OD600 was measured every 30 min for 18h.
This experiment was conducted on three biological samples (n = 3). Error bars represent the standard of devi ation and are c enter ed at the me an. Source data are p rovided as a Source Data file. […]

## CC(=O)NCC(=O)N[C@@H](CC(=O)O)C(=O)N[C@H](C(=O)N[C@@H](CCC(N)=O)C(=O)N[C@@H](C)C(=O)N[C@@H](CCC(=O)O)B(O)O)C1CC1 [Compound 9] (Ac-GD[Gly(cPr)]QA-boroGlu)
Time 2 h
  growth curve reading, ATCC 29212 +9: 0.113 and 0.1202 and 0.1066
  growth curve reading, pAM714 +9: 0.1067 and 0.1037 and 0.1046
Time 3 h
  growth curve reading, ATCC 29212 +9: 0.1514 and 0.1613 and 0.1459
  growth curve reading, pAM714 +9: 0.1299 and 0.129 and 0.1314
